According to patent US10711043B2, “Compositions and vaccines comprising vesicles and methods of using the same” (priority 2013, dated 2020):
≈ marks a conversion by molar mass, not a printed value.

Tested on: HepG2 cells
Experiment: WST-1 cell proliferation assay on HepG2 cells
Type: cell-based, human
Conditions: treated 72 h

Compound `COc1cccc2c1C(=O)c1c(O)c3c(c(O)c1C2=O)C[C@@](O)(C(=O)CO)C[C@@H]3O[C@H]1C[C@H](N)[C@H](O)[C@H](C)O1` [doxorubicin] has an IC50 of 0.16 µg/mL (≈ 0.294 µM).
